Test [1] addresses T1, human GITR (hGITR), form not stated (human) (UniProt Q9Y5U5).
T1 sequence: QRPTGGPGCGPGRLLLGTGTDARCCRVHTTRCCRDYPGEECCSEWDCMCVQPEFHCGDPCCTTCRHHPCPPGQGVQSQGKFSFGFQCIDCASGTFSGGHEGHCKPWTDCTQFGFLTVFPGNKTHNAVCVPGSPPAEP
The test is described as follows: sandwich ELISA against hGITR. In general terms: In an ELISA, binding on a coated surface is turned into a signal by an enzyme label.

The target in test [2] is T1, human GITR (hGITR), form not stated (human). The test is described as follows: ELISA on a panel of human TNFRs.

This is an account of results in US20170306037A1.

No constants are given. Whether binding was seen depends on the method and setting. Some binding calls cover weakened binding; strength is not graded here.

B1: MAB1 (murine monoclonal GITR agonist antibody) (antibody, V domains shown)
VH: QVQLKESGPGLVAPSQSLSITCTVSGFSLRSYGVDWVRQPPGKGLEWLGVIWGGGGTNYNSALMAKLSISKDKSKSQVFLKMNSLQTDDTAMYYCAKHAYGHDGGFAMDYWGQGTSVTVSS
VL: NIVMTQSPKSMSMSVGERVTLSCKASENVDTFVSWYQQKPDHSPKLLIYGASNRYTGVPDRFTGSGSATDFTLTISSVQAEDLADYHCGQSYSYPFTFGSGTKLEIK
For the molecule B1, the binding result in test [1] is given as “binds”.

B2: MAB3 (IgG1 kappa) (antibody, V domains shown)
VH: QVQLVESGGGLVQPGGSLRLSCAASGFSLSSYGVDWVRQAPGKGLEWLGVIWGGGGTYYTASLMGRFTISRDNSKNTLYLQMNSLRAEDTAVYYCAKHAYGHDGGFAMDYWGQGTLVTVSS
VL: EIVMTQSPATLSVSPGERATLSCRASQSVSSNLAWYQQKPGQAPRLLIYGASNRATGIPDRFSGSGSGTDFTLTISRLEPEDFAVYYCGQSYSYPFTFGQGTKLEIKR
On to B2, for which the binding result in test [2] is “binds”.
